At least one peptide structure holds a part that was inferred or is arguable (an end, a ring closure or a residue). Bridge positions count the residues as written; N and C are the ends. Peptide text beside a SMILES is read from it. * marks the point of attachment. Biotin = O=C1N[C@H]2[C@H](CS[C@H]2CCCCC(=O)*)N1
Test: LPS binding as determined by ELISA (general description)
Parameters: species or system E. coli

Structure (SMILES)	binding to E. coli J5-LPS as determined by ELISA
CC(C)C[C@@H]1NC(=O)[C@H](CCCNC(=N)N)NC(=O)[C@H](CCCNC(=N)N)NC(=O)[C@H](Cc2ccccc2)NC(=O)[C@H]([C@@H](C)O)NC(=O)[C@@H](NC(=O)CCCC[C@@H]2SC[C@@H]3NC(=O)N[C@@H]32)CSSC[C@@H](C(=O)O)NC(=O)[C@H](CCCCN)NC(=O)[C@H](Cc2c[nH]c3ccccc23)NC(=O)[C@H](CCCCN)NC1=O [LALF-10] (Biotin-CTFRRLKWKC-OH; disulfide 1-10)	Both bind lipid A and, additionally, two different types of LPS-molecules
CC[C@H](C)[C@@H]1NC(=O)[C@H](CCCNC(=N)N)NC(=O)[C@H](Cc2ccc(O)cc2)NC(=O)[C@H](Cc2c[nH]cn2)NC(=O)[C@@H](N)CSSC[C@@H](C(=O)O)NC(=O)[C@H](Cc2c[nH]c3ccccc23)NC(=O)[C@H](Cc2ccccc2)NC(=O)[C@H](CCCCN)NC(=O)CNC(=O)[C@H](CCCCN)NC(=O)[C@H](Cc2ccc(O)cc2)NC(=O)[C@H](CCCCN)NC(=O)[C@H](Cc2c[nH]c3ccccc23)NC(=O)[C@H](CCCCN)NC(=O)[C@H](CC(C)C)NC(=O)[C@H](CCCNC(=N)N)NC(=O)[C@H](CCCNC(=N)N)NC(=O)[C@H](Cc2ccccc2)NC(=O)[C@H]([C@@H](C)O)NC(=O)[C@@H]2CCCN2C(=O)[C@H](CCCCN)NC1=O [amino acids 31 to 52 of LALF] (H-CHYRIKPTFRRLKWKYKGKFWC-OH; disulfide 1-22; N-terminus and C-terminus assumed)	Both bind lipid A and, additionally, two different types of LPS-molecules

Source: patent US6384188B1, “Lipopolysaccharide-binding and neutralizing peptides” (Dana-Farber Cancer Institute, Inc., priority 1993, dated 2002)
